Assay results taken from patent publication US20220175682A1, “Siremadlin Succinate” (Novartis AG, priority 2019, published 2022).

What was measured:
[1] = Direct encapsulation of neat API on vacuum drum filler equipment (filler type not specified)
[2] = Capsule filling of neat API on sonic filler vacuum drum; settings: two filling DoE, over the dose range, no sieving

Question: Which “percentage of good capsules of the total number of produced capsules” value ([1]; throughput superior than 40,000 capsules within 6 hours) does the source give for `CC1(N)CCN(c2cccnc2NC(=O)c2nc(-c3ncccc3C(F)(F)F)cnc2N)CC1` [5. LXS196, reference compound] here?
Answer: 98.8%

Question: For `CCC(=O)N1CC[C@H](Nc2ncnc3c2CN(c2cnc(OC)c(C(F)(F)F)c2)CC3)C1` [6. CDZ173, reference compound], which “fillability with the processing method” value ([1]; listed as Line 6) is on record?
Answer: borderline fillable

Question: Which “fillability with the processing method” value ([1]; listed as line 7) does the source give for `CCC(=O)N1CC[C@H](Nc2ncnc3c2CN(c2cnc(OC)c(C(F)(F)F)c2)CC3)C1` [7. CDZ173, reference compound] here?
Answer: not fillable

Question: For `COc1ncc(-c2nc3c(n2C(C)C)[C@H](c2ccc(Cl)cc2)N(c2cc(Cl)cn(C)c2=O)C3=O)c(OC)n1.O=C(O)CCC(=O)O` [Batch A1], which “filling RSD” value [2] is on record?
Answer: 0.92-2.58%
